The other results are listed elsewhere or left out. The main result of the screen is listed elsewhere. These columns were measured beside it and carry no call. The list favours compounds with an active or inconclusive main result. The note in brackets gives the kind of curve behind each potency; many fits are weak.
Test: qHTS Assay for Lipid Storage Modulators in Drosophila S3 Cells;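 for cell number change: cells counted by Cell Tracker Red CMTPX staining in the red channel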
Conditions: BODIPY lipid droplet fluorescence, 18-24 h; for cell number change: measured here: cell count max response, cells fed with added oleic acid
In short: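 Drosophila S3 cells loaded with oleic acid (400 uM, as added) and compounds at several concentrations; lipid droplets imaged by 488-nm laser-scanning cytometry, 500–530 nm intensity and object ratio to cell channel. Percent activity normalized to 20 uM Triacsin C.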

[1] = measured here: cell number channel AC50, cells fed with added oleic acid
[2] = measured here: lipid fluorescence (Fed channel) AC50, cells fed with added oleic acid

SMILES	cell number change	AC50 [1]	AC50 [2]
O=C(Cc1ccccn1)c1ccc(F)cc1	9.44%		
Nn1c(Cc2cccc3ccccc23)nnc1SCn1nnc2ccccc2c1=O	53.1%	2.59 µM [rising, single point]	5.8 µM [rising, partial curve]
CCOC(=O)C1CCCN(c2c(NCCN(CC)c3ccccc3)c(=O)c2=O)C1 (centres undefined)	44%	11.6 µM [rising, partial curve]	
O=C(Cn1nnc(-c2ccc3c(c2)OCO3)n1)Nc1ccccc1C(=O)O	-16.1%		20.6 µM [rising, partial curve, poor fit]
Cc1cc(C)nc(NN=C(c2ccccc2)c2ccccc2)n1	41.8%	8.2 µM [rising, partial curve]	7.31 µM [rising, partial curve]
CCN(CCn1cccn1)Cc1cn[nH]c1-c1ccc(OC)cc1F	-0.363%		6.51 µM [falling, single point]
CCCOc1ccc(S(=O)(=O)n2cc(F)c(=O)[nH]c2=O)cc1	170%	9.2 µM [rising, partial curve]	8.2 µM [rising, partial curve]
Cn1c(=O)n(C)c2cc([N+](=O)[O-])c(N3CCN(CCO)CC3)cc21	-9.72%		
COc1cc(OC)c2c(C)cc(=O)oc2c1C(CCN1CCOCC1)c1ccc(N(C)C)cc1 (centres undefined)	16.2%		0.058 µM [rising, full curve, poor fit]
O=S(=O)(NCCN1CCOCC1)c1cc(Cl)ccc1Cl	-14%		
CCN(CCCNC(=O)c1[nH]c(C)c(C(C)=O)c1C)c1ccccc1			6.51 µM [rising, single point]
Cc1cc(C)nc(N2CCC(C(=O)NNC(=O)c3ccccc3)CC2)n1	24.6%		8.2 µM [rising, partial curve]
O=S(=O)(c1ccccc1OC(F)(F)F)N1CCN(c2ccnc3cc(Cl)ccc23)CC1	102%	29.1 µM [rising, single point]	
COc1ccc(S(=O)(=O)N2CCC(c3cc(-c4cccc5ccccc45)n[nH]3)CC2)cc1	26.3%		29.1 µM [rising, single point]
O=C(NCC(=O)N1CCN(c2ccccc2)CC1)c1ccc(Cl)cc1	21.7%		7.31 µM [rising, partial curve, poor fit]
CCCCC(CC)CNC(=O)CN(C)S(=O)(=O)c1cccc2nsnc12 (centres undefined)	-7.24%		

Sorted by count of non-hydrogen atoms (rising): part of the list above
SMILES	cell number change	AC50 [1]	AC50 [2]
O=S(=O)(NCCN1CCOCC1)c1cc(Cl)ccc1Cl	-14%		
CCN(CCCNC(=O)c1[nH]c(C)c(C(C)=O)c1C)c1ccccc1			6.51 µM [rising, single point]
O=S(=O)(c1ccccc1OC(F)(F)F)N1CCN(c2ccnc3cc(Cl)ccc23)CC1	102%	29.1 µM [rising, single point]	

(listing goes on)

SMILES	cell number change	AC50 [1]	AC50 [2]
Cc1ccc2[nH]c3c(c2c1)CN(C(=O)CN1CC(C)OC(C)C1)CC3 (centres undefined)	23.8%		23.1 µM [rising, single point]
COc1ccc(NC(=O)C2CCN(S(=O)(=O)c3ccc4c(c3)NC(=O)CO4)CC2)cc1	28.6%	5.8 µM [rising, single point]	18.4 µM [rising, partial curve]
CCOC(=O)c1sc(NC(=O)c2sc(C)nc2C)nc1C	-19.1%		0.58 µM [rising, partial curve, poor fit]
O=C(Nc1ccc(OC(F)F)c(Cl)c1)C(c1ccccc1)c1ccccc1	-25.2%		20.6 µM [falling, single point]
COc1cc(/C=C2/C(=O)NN(c3ccccc3)C2=O)cc(Br)c1O	-4.23%		
Clc1ccc(SCCOCCN2CCOCC2)cc1	-5.77%		11.6 µM [rising, partial curve]
CSc1ccccc1OCc1cc(C(=O)N(C)CCc2c(C)n[nH]c2C)no1	0.708%		
O=S(=O)(N1CCCCC1)N1CCN(S(=O)(=O)N2CCCCC2)CC1	-11.8%	2.59 µM [falling, partial curve]	6.51 µM [falling, single point]
Cc1ccc(NC2=CC(=O)CC(C)(C)C2)cc1F	-26.4%		
C/C(=N\OCC(=O)Nc1nc2ccccc2s1)c1ccccc1			2.91 µM [rising, full curve]
COc1ccccc1-c1cn[nH]c1-c1ccc(OCc2ccc(F)cc2)cc1O	-58.5%	29.1 µM [falling, single point]	
CCN(CC)S(=O)(=O)c1cccc(NC(=O)CCNC(=O)c2ccc([N+](=O)[O-])cc2)c1	-13.1%		18.4 µM [falling, single point]
C#Cc1ccc(C(=O)Nc2ccc(N3CCC(C)CC3)c(C(N)=O)c2)cc1	5.89%		
CCN(CC)C(=O)CSc1nnc(-n2nc(C)cc2C)c2ccccc12	91.7%	11.6 µM [rising, partial curve]	2.06 µM [rising, full curve]
COc1ccc(-n2c(COc3cccc4ccccc34)nnc2SCC(=O)NCc2ccco2)cc1	-20.3%	1.84 µM [rising, partial curve]	4.11 µM [rising, partial curve]

— PubChem BioAssay AID2685 (National Center for Advancing Translational Sciences (NCATS), 2010)
